Laboratory results published in the supplement of paper PMC7877785.
± gives the uncertainty stated by the source. Many of these values have a large error.

Assay: self-splicing fitness, log relative to wild type (ln ratio); higher = more splicing; Tetrahymena group I intron in knt gene, E. coli kanamycin selection, DiMSum; sequences stand for … in CUCUCU…GGAGGGAAAAGUUAUCAGGCAUGCACCUGGUAGCUAGUCUUUAAACCAAUAGAUUGCAUCGGUUUAAAAGGCAAGACCGUCAAAUUGCGGGAAAGGGGUCAACAGCCGUUCAGUACCAAGUCUCAGGGGAAACUUUGAGAUGGCCUUGCAAAGGGUAUGGUAAUAAGCUGACGGACAUGGUCCUAACCACGCAGCCAAGUCCUAAGUCAACAGAUCUUCUGUUGAUAUGGAUGCAGUUCACAGACUAAAUGUCGGUCGGGGAAGAUGUAUUCUUCUCAUAAGAUAUAGUCGGACCUCUCCUUAAUGGGAGCUAGCGGAUGAAGUGAUGCAACACUGGAGCCGCUGGGAACUAAUUUGUAUGCGAAAGUAUAUUGAUUAGUUUUGGAGUACUCGUGGUCG
Summary of the method: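 Library with all eight P1ex-region intron nucleotides randomised, intron inside the knt kanamycin-resistance gene on pET-22b(+), in E. coli BL21(DE3). Cells grew overnight at 37°C or 30°C on LB agar with or without 25 μg/mL kanamycin (plus 100 μg/mL carbenicillin, 50 μM IPTG, 0.2% rhamnose), in six replicate transformations. Pooled colonies were amplicon-sequenced on Illumina HiSeq 2500. DiMSum fitness is the error-weighted combination of wild-type-normalised replicate fold changes, kanamycin versus none.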

Row | Sequence | self-splicing fitness (ln) (37 °C) | self-splicing fitness (ln) (30 °C)
1 | AGCUAGCAAUAUUACGCAUC | -2.32 ± 0.64 | 
2 | CGACAGCAAUAUUACGCCGC |  | -4.26 ± 1
3 | CCCUAGCAAUAUUACGAAUU | -2.22 ± 0.6 | -3.99 ± 0.72
4 | AGCUAGCAAUAUUACGUCAC |  | -4.86 ± 0.51
5 | CAAGAGCAAUAUUACGACCC | -1.87 ± 0.52 | 
6 | CGAUAGCAAUAUUACGGAUA |  | -3.02 ± 0.53
7 | CUAAAGCAAUAUUACGUACC |  | -2.71 ± 0.5
8 | UCGUAGCAAUAUUACGCUAC | -0.234 ± 1.4 | -4.4 ± 1
9 | AUCUAGCAAUAUUACGACUC | -0.731 ± 0.52 | 
10 | UGGUAGCAAUAUUACGCAGC |  | -3.27 ± 0.76
11 | AUUUAGCAAUAUUACGCAGG | -2.42 ± 0.56 | 
12 | CGUCAGCAAUAUUACGUGGC | -2.25 ± 0.55 | -4.27 ± 0.59
13 | GCGUAGCAAUAUUACGCCCC | -0.881 ± 0.75 | 
14 | CUUUAGCAAUAUUACGCGAA |  | -3.26 ± 0.55
15 | CGAUAGCAAUAUUACGCUAA |  | -4.17 ± 0.52
16 | GUGGAGCAAUAUUACGCAAG |  | -4.21 ± 1
17 | GGGCAGCAAUAUUACGGGUA |  | -2.25 ± 0.55
18 | GAGAAGCAAUAUUACGCACC | -1.41 ± 0.42 | -1.91 ± 0.28
19 | AUCUAGCAAUAUUACGGGGC | -2.85 ± 0.74 | 
20 | CUCUAGCAAUAUUACGCACC | -1.84 ± 1.1 | 
21 | UGCGAGCAAUAUUACGCAUG |  | -2.43 ± 0.56
22 | UUUCAGCAAUAUUACGCCCC | -2.3 ± 1.1 | 
23 | GCGGAGCAAUAUUACGAACC | -0.00188 ± 0.52 | 
24 | UCUUAGCAAUAUUACGACCA | -1.33 ± 0.62 | 

Row | Sequence | self-splicing fitness (ln) (37 °C) | self-splicing fitness (ln) (30 °C)
25 | UUGUAGCAAUAUUACGAACC | -2.39 ± 1.1 | 
26 | ACGGAGCAAUAUUACGGGGG |  | -3.87 ± 0.52
27 | CUGUAGCAAUAUUACGGCCU |  | -5.15 ± 0.71
28 | GCCUAGCAAUAUUACGCUAG |  | -4.7 ± 0.72
29 | AUAUAGCAAUAUUACGCCAG | -0.682 ± 0.51 | -3.8 ± 0.77
30 | UGAAAGCAAUAUUACGCCUC | -2.43 ± 0.5 | 
31 | AGUUAGCAAUAUUACGCGCC | -0.534 ± 0.72 | -1.44 ± 0.58
32 | UAGCAGCAAUAUUACGCUCC | -0.882 ± 0.6 | 
33 | UAUGAGCAAUAUUACGACUC | -2.18 ± 0.6 | -4.17 ± 1.1
34 | CGCUAGCAAUAUUACGGUUA | -1.82 ± 0.2 | -2.22 ± 0.23
35 | GCGUAGCAAUAUUACGACGC | -2.25 ± 0.54 | 
36 | AAGAAGCAAUAUUACGUAGG | -1.14 ± 0.12 | -2.09 ± 0.082
37 | AGUGAGCAAUAUUACGCCUU | -1.45 ± 0.68 | -3.27 ± 0.61
38 | UGGGAGCAAUAUUACGUUCC | -2.72 ± 1.1 | 
39 | UUCUAGCAAUAUUACGCAAC | -2.74 ± 0.75 | 
40 | GUUGAGCAAUAUUACGGUUU | -2.73 ± 0.32 | -4.2 ± 0.33
41 | AUAUAGCAAUAUUACGCUGC |  | -4.32 ± 1
42 | UCACAGCAAUAUUACGUGUA | -1.09 ± 0.088 | -2.2 ± 0.089
43 | GCAGAGCAAUAUUACGCGCU |  | -4.12 ± 0.73
44 | GUUGAGCAAUAUUACGAAGU | -0.903 ± 0.51 | -3.28 ± 0.77
45 | UCUGAGCAAUAUUACGGUUC |  | -3.5 ± 0.61
46 | CAACAGCAAUAUUACGGCCC |  | -4.24 ± 0.72
47 | AUCGAGCAAUAUUACGCUGA |  | -3.47 ± 0.76
48 | CUUGAGCAAUAUUACGGCCC | -0.145 ± 0.71 | 

Row | Sequence | self-splicing fitness (ln) (37 °C) | self-splicing fitness (ln) (30 °C)
49 | UUGCAGCAAUAUUACGCGAC | -2.48 ± 1.1 | -0.631 ± 1.2
50 | AGUCAGCAAUAUUACGUUGC |  | -3.46 ± 1.1
51 | GACGAGCAAUAUUACGCCUG |  | -4.19 ± 1
52 | GGACAGCAAUAUUACGCCGC |  | -3.55 ± 0.61
53 | GAGGAGCAAUAUUACGACCG |  | -3.94 ± 0.73
54 | AAUGAGCAAUAUUACGCCAA | -1.13 ± 0.5 | -2.51 ± 0.62
55 | AAAGAGCAAUAUUACGGUUC |  | -3.25 ± 0.52
56 | CGGUAGCAAUAUUACGACAC | -0.595 ± 1.4 | -2.19 ± 0.66
57 | UUCGAGCAAUAUUACGCUGC | -1.73 ± 0.52 | 
58 | UAACAGCAAUAUUACGCAAC | -2.53 ± 0.54 | -3.57 ± 0.73
59 | GUACAGCAAUAUUACGUACC |  | -3.16 ± 0.77
60 | ACGGAGCAAUAUUACGACCC |  | -1.69 ± 0.91
61 | GAAUAGCAAUAUUACGCCUC | -0.693 ± 0.82 | -1.36 ± 0.84
62 | UACUAGCAAUAUUACGAACC |  | -3 ± 0.75
63 | CAUAAGCAAUAUUACGUGGC |  | -5.5 ± 1
64 | GCCAAGCAAUAUUACGACAG | -3.8 ± 0.39 | -3.63 ± 0.2
65 | GUUGAGCAAUAUUACGCAAC | -1.03 ± 0.93 | 
66 | GUUUAGCAAUAUUACGUACC | -1.39 ± 1.2 | 
67 | GCUGAGCAAUAUUACGAAGU |  | -3 ± 0.54
68 | CUUUAGCAAUAUUACGUUAU | -1.79 ± 0.19 | -3.64 ± 0.23
69 | CUCUAGCAAUAUUACGUAUC | -3.04 ± 0.74 | -4.04 ± 1
70 | GCGGAGCAAUAUUACGGCCU |  | -0.86 ± 1.4
71 | GCGGAGCAAUAUUACGGACC | -1.47 ± 0.87 | 
72 | GGGGAGCAAUAUUACGAAGU | -3.37 ± 0.6 | 

Row | Sequence | self-splicing fitness (ln) (37 °C) | self-splicing fitness (ln) (30 °C)
73 | GCGGAGCAAUAUUACGCUUA |  | 1.37 ± 1.1
74 | CGGGAGCAAUAUUACGUCCU | -2.06 ± 0.51 | 
75 | CUGAAGCAAUAUUACGCCAA | -2.54 ± 0.62 | 
76 | UGUUAGCAAUAUUACGCUAA | -2.74 ± 0.75 | 
77 | UUCGAGCAAUAUUACGCCAU | -1.32 ± 0.57 | -4.6 ± 0.72
78 | UGAAAGCAAUAUUACGCCGC | -2.16 ± 0.57 | -2.52 ± 0.85
79 | GAGGAGCAAUAUUACGACCU | -0.979 ± 0.59 | 
80 | GCGAAGCAAUAUUACGGAGC | -2.52 ± 0.21 | -2.69 ± 0.16
81 | AUGCAGCAAUAUUACGCAUC |  | -3.05 ± 0.57
82 | UCUAAGCAAUAUUACGCCGG | -0.186 ± 0.15 | -1.15 ± 0.13
83 | GGAGAGCAAUAUUACGCCCG | -1.57 ± 0.61 | -1.9 ± 0.63
84 | CCUAAGCAAUAUUACGUCAC |  | -4.04 ± 1
85 | UAGUAGCAAUAUUACGCAGC | -2.5 ± 0.5 | 
86 | CUCCAGCAAUAUUACGACCC | -1.82 ± 0.6 | -3.35 ± 1
87 | CCAUAGCAAUAUUACGGGCC |  | -4.73 ± 0.58
88 | CUUUAGCAAUAUUACGUAAA |  | -5.09 ± 1
89 | CAUUAGCAAUAUUACGGAAC |  | -3.94 ± 0.59
90 | UGUGAGCAAUAUUACGGAGU | -2.9 ± 0.53 | -2.92 ± 0.56
91 | CGAGAGCAAUAUUACGCCGU | -1.51 ± 0.7 | 
92 | AGACAGCAAUAUUACGUAAG | -0.396 ± 0.088 | -1.33 ± 0.075
93 | GAGGAGCAAUAUUACGAGAU | -3.52 ± 0.6 | 
94 | GUCUAGCAAUAUUACGCAAG |  | -3.26 ± 0.68
95 | UAGCAGCAAUAUUACGCACC | -0.423 ± 0.16 | -0.936 ± 0.16
96 | UUGAAGCAAUAUUACGACAG | 0.232 ± 0.11 | 0.483 ± 0.091

Complete entries from above.
CUCCAGCAAUAUUACGACCC as listed: self-splicing fitness (ln) (37 °C): -1.82 ± 0.6; self-splicing fitness (ln) (30 °C): -3.35 ± 1
CAUUAGCAAUAUUACGGAAC as listed: self-splicing fitness (ln) (30 °C): -3.94 ± 0.59
UUCGAGCAAUAUUACGCCAU as listed: self-splicing fitness (ln) (37 °C): -1.32 ± 0.57; self-splicing fitness (ln) (30 °C): -4.6 ± 0.72
GAGGAGCAAUAUUACGAGAU as listed: self-splicing fitness (ln) (37 °C): -3.52 ± 0.6

Next part

Row | Sequence | self-splicing fitness (ln) (37 °C) | self-splicing fitness (ln) (30 °C)
97 | CCGGAGCAAUAUUACGCACU |  | -4.36 ± 0.52
98 | UCAAAGCAAUAUUACGAGUC | -2.26 ± 0.22 | -3.79 ± 0.21
99 | CAGGAGCAAUAUUACGUCAC |  | -3.83 ± 0.6
100 | CUGUAGCAAUAUUACGCCAU | -0.681 ± 1.4 | 
101 | GCGCAGCAAUAUUACGCCCC | -0.307 ± 0.77 | -0.868 ± 1.4
102 | CGGAAGCAAUAUUACGACAC |  | -2.62 ± 1.1
103 | UACCAGCAAUAUUACGCUGC | -3.23 ± 0.6 | -5.04 ± 1
104 | UUCAAGCAAUAUUACGUCGA | -0.0975 ± 0.087 | -0.383 ± 0.078
105 | GUUGAGCAAUAUUACGGCAG | -2.75 ± 0.62 | -3.54 ± 0.54
106 | UCUCAGCAAUAUUACGUUUA | -1.08 ± 0.13 | -2.98 ± 0.18
107 | UUGGAGCAAUAUUACGGAGA | -1.08 ± 0.23 | -2.59 ± 0.37
108 | CCCGAGCAAUAUUACGCCCC |  | -3.01 ± 0.76
109 | GCCCAGCAAUAUUACGAUCC | -0.336 ± 0.19 | -0.561 ± 0.13
110 | UCAGAGCAAUAUUACGCAUA | -2.64 ± 0.66 | 
111 | GUCCAGCAAUAUUACGCCGU | -0.122 ± 0.13 | -1.29 ± 0.13
112 | GAAGAGCAAUAUUACGUCCC | -0.44 ± 1 | -2.04 ± 0.87
113 | CCUAAGCAAUAUUACGAAUC | -3.21 ± 0.6 | 
114 | CUCUAGCAAUAUUACGACCA | -3.79 ± 0.51 | -3.59 ± 0.53
115 | GGUUAGCAAUAUUACGCAAC |  | -3 ± 0.75
116 | UUGGAGCAAUAUUACGACUA | -0.0758 ± 0.64 | 
117 | AUUAAGCAAUAUUACGAAUG | -0.206 ± 0.2 | -2.82 ± 0.2
118 | CUGGAGCAAUAUUACGCCCU | -1.27 ± 0.72 | -1.32 ± 1.4
119 | UAGGAGCAAUAUUACGACAA | -1.99 ± 0.65 | -1.83 ± 0.69
120 | CAGUAGCAAUAUUACGAAUC | -2.29 ± 0.63 | 
